According to US20110184188A1, “Insecticidal Benzenedicarboxamide Derivative” (priority 2008, published 2011):
Some results were stated once for a whole list of compounds, not compound by compound. For part of these data: At least one compound was matched to its structure with a doubt left.

Legend:
Type in all cases: in vivo
[1] = system: Myzus persicae; assay: Test to Myzus persicae (Brassica pekinensis leaf disc spray); settings: spraying amount 100 g/ha
Experimental: Solvent: acetone 78.0 parts by weight and dimethylformamide 1.5 parts by weight Emulsifier: alkyl aryl polyglycol ether 0.5 parts by weight
(§1) In order to prepare preparations of suitable active compounds, 1 part by weight of each of the active compounds was blended with the above amount of the solvent containing the above amount of the emulsifier, and the resulting mixture was diluted to a prescribed concentration with water.
On a leaf disc of Brassica pekinensis, Myzus persicae including all growth stage was inoculated. The solution diluted with water and having a prescribed concentration of the active compound was sprayed by a spray gun. Insect mortality was calculated after prescribed days elapsed. 100% insect mortality means that all the individuals died, and 0% insect mortality means that all the individuals were alive.

[2] = system: Myzus persicae resistant to organophosphorus pesticide and carbamate agent; assay: Test to Myzus persicae resistant to organophosphorus pesticide and carbamate agent (egg plant seedlings); settings: effective ingredient concentration 100 ppm, seven days after spraying
Experimental: Test to Myzus persicae resistant to organophosphorus pesticide and carbamate agent
(§2) Solvent: dimethylformamide 3 parts by weight Emulsifier: polyoxyethylene alkyl phenyl ether 1 part by weight
as §1
On egg plant seedlings planted in a plastic pot of a diameter of 6 cm, 30 bred Myzus persicae resistant to organophosphorus pesticide and carbamate agent per one seedling were inoculated. After 1 day elapsed since the inoculation, a sufficient amount of the solution diluted with water and having a prescribed concentration of the active compound was sprayed. After the spraying, the pot was allowed to stand in a greenhouse of 28° C. After seven days elapsed since the spraying, insect mortality was calculated. The test was carried out twice.

[3] = system: Spodoptera litura third instar larvae; assay: Test to larva of Spodoptera litura (sweet potato leaf dip); settings: active ingredient concentration 20 ppm, seven days later, 25° C.
Experimental: Test to Larva of Spodoptera litura
as §2, §1
Leaves of sweet potato were immersed in the tested liquid medication of a prescribed concentration diluted with water. After air drying of the liquid medication, the leaves were put into a petri dish of a diameter of 9 cm, and 10 Spodoptera litura third instar larvae were released in the petri dish, and the petri dish was placed in a constant temperature room of 25° C. Two days later and four days later, leaves of sweet potato were added. Seven days later, the number of dead insects was examined, and insect mortality was calculated.
In the present test, results of 2 petri dishes for each compound were averaged.

[4] = system: Lucilia cuprina; assay: Test to Lucilia cuprina (larvae on horse minced meat); settings: effective ingredient concentration 100 ppm
Experimental: Solvent: dimethylsulfoxide
In order to prepare preparations of suitable active compounds, 10 mg of each of the active compounds was dissolved into 0.5 ml of the above solvent, and the resulting mixture was diluted to a prescribed concentration with water.
About 20 to 30 larvae of Lucilia cuprina were put into the test tube in which 1 cm^3 of horse minced meat and 0.5 ml of the aqueous solution of the compound prepared in the above were put. After a fixed time passed, the mortality of the Lucilia cuprina was obtained. 100% mortality means that all the individuals were dead, and 0% mortality means that all the individuals were alive.

[5] = system: Boophilus microplus; assay: Test to Boophilus microplus (injection into engorged female adults); settings: treated amount 20 μg/insect
[6] = system: Meloidogyne incognita; assay: Test to Meloidogyne incognita (node formation on Lactuca sativa roots); settings: active ingredient concentration 20 ppm
[7] = system: Cnaphalocrocis medinalis larvae of second instar; assay: Test to Cnaphalocrocis medinalis larva (sprayed paddy-rice); settings: active ingredient concentration 20 ppm, seven days later

SMILES | pesticide effect, insect mortality [1] [%] | pesticide effect, insect mortality [2] [%] | insect mortality [3] [%] | insecticide activity (mortality) [4] [%] | insecticide activity (mortality, eggs not hatching) [5] [%] | pesticide effect (node formation rate of root part) [6] [%] | insect mortality [7] [%]
CSC[C@H](C)NC(=O)c1c(Cl)cccc1C(=O)Nc1ccc(Cn2nc(C(F)(F)F)nc2CC(F)(F)F)cc1C [14-23] | ≥ 70 | 100 | 100 | – | – | – | –
Cc1cc(Cn2cc(C(F)(F)F)c(C(F)(F)C(F)(F)F)n2)ccc1NC(=O)c1cccc(Cl)c1C(=O)NC(C)C[S+](C)[O-] (mixture of isomers) [13-64] | – | 100 | 100 | ≥ 80 | ≥ 80 | – | –
CSC[C@H](C)NC(=O)c1c(C(=O)Nc2ccc(Cn3nc(C(F)(F)F)nc3C(F)(F)F)cc2C)cccc1C(F)(F)F [14-262] | ≥ 70 | 100 | 100 | – | – | – | –
CSC[C@H](C)NC(=O)c1c(C(=O)Nc2ccc(Cn3nc(C(F)(F)F)cc3C(F)(F)F)cc2C)cccc1S(=O)(=O)N(C)C [13-344] | ≥ 70 | 100 | – | – | – | – | –
CSC[C@H](C)NC(=O)c1c(Cl)cccc1C(=O)Nc1c(Cl)cc(Cn2nc(C(F)(F)F)nc2C(F)(F)F)cc1Cl [5-14] | ≥ 70 | 100 | – | – | – | – | –
CSC[C@H](C)NC(=O)c1c(SC)cccc1C(=O)Nc1ccc(Cn2nc(C(F)(F)F)nc2C(F)(F)F)cc1Cl [14-401] | – | 100 | – | ≥ 80 | ≥ 80 | – | –
Cc1nc(Cn2nc(C(F)(F)C(F)(F)C(F)(F)F)cc2C(F)(F)F)ccc1NC(=O)c1cccc(Br)c1C(=O)N[C@@H](C)CS(C)(=O)=O [13-139] | ≥ 70 | – | – | – | – | ≥ 80 | –
CC[S+]([O-])CC(C)NC(=O)c1c(Cl)cccc1C(=O)Nc1ccc(C(C)n2nc(C(F)(F)F)nc2C(F)(F)F)cc1C (mixture of isomers) [14-76] | ≥ 70 | 100 | 100 | – | – | – | 100
Cc1cc(Cn2nc(C(F)(F)F)nc2C(F)(F)F)ccc1NC(=O)c1cccc([S+](C)[O-])c1C(=O)N[C@@H](C)C[S+](C)[O-] (stereo partly drawn) [14-373] | ≥ 70 | 100 | – | – | – | – | –
Cc1nc(Cn2cc(C(F)(F)C(F)(F)F)c(C(F)(F)C(F)(F)F)n2)ccc1NC(=O)c1cccc(Cl)c1C(=O)N[C@@H](C)CS(C)(=O)=O [13-110] | ≥ 70 | – | – | – | – | ≥ 80 | –
CSCC(C)NC(=O)c1c(I)cccc1C(=O)Nc1ccc(Cn2nc(C(F)(F)C(F)(F)F)nc2C(F)(F)Cl)cc1C (stereo not drawn) [14-201] | – | 100 | 100 | – | – | – | 100
Cc1nc(Cn2nc(C(F)(F)C(F)(F)F)cc2C(F)(F)F)ccc1NC(=O)c1cccc(I)c1C(=O)N[C@@H](C)CS(C)(=O)=O [13-189] | ≥ 70 | – | – | – | – | ≥ 80 | –
CSC[C@H](C)NC(=O)c1c(C(=O)Nc2ccc(Cn3nc(C(F)(F)F)cc3C(F)(F)F)cc2C)cccc1C(F)(F)F [13-167] | ≥ 70 | 100 | 100 | – | – | – | –
COC(=O)C(c1ccc(NC(=O)c2cccc(Cl)c2C(=O)NC(C)CS(C)(=O)=O)c(C)c1)c1nc(C(F)(F)F)cc(C(F)(F)F)n1 (mixture of isomers) [15-18] | – | 100 | 100 | – | – | – | 100
CCS(=O)(=O)CC(C)NC(=O)c1c(Cl)cccc1C(=O)Nc1ccc(C(C)n2nc(C(F)(F)F)nc2C(F)(F)F)cc1C (mixture of isomers) [14-79] | ≥ 70 | 100 | 100 | – | – | – | 100
CSCC(C)NC(=O)c1c(Cl)cccc1C(=O)Nc1ccc(Cn2nc(C(F)(F)C(F)(F)F)nc2-c2ncc(Cl)cc2Cl)cc1C (stereo not drawn) [14-47] | ≥ 70 | 100 | 100 | – | – | – | –
